Results from doi:10.1101/2025.03.10.641328.
Results are given in words; binding and its absence hold for the method and conditions named. In cells and extracts the contact can be indirect. Some binding calls cover weakened binding; strength is not graded here. Tags and fused reporters may be left off the sequences shown.

Assays:
[1] = target: T1, GFP-tagged wild type gigaxonin (human) (UniProt Q9H2C0); test: co-IP; GFP-tagged gigaxonin captured on TurboGFP-Trap magnetic agarose beads from Triton X-100 soluble lysate of transfected cells, overnight at 4°C; 20% of the IP eluted in SDS sample buffer, immunoblot for NUDCD3
T1 sequence: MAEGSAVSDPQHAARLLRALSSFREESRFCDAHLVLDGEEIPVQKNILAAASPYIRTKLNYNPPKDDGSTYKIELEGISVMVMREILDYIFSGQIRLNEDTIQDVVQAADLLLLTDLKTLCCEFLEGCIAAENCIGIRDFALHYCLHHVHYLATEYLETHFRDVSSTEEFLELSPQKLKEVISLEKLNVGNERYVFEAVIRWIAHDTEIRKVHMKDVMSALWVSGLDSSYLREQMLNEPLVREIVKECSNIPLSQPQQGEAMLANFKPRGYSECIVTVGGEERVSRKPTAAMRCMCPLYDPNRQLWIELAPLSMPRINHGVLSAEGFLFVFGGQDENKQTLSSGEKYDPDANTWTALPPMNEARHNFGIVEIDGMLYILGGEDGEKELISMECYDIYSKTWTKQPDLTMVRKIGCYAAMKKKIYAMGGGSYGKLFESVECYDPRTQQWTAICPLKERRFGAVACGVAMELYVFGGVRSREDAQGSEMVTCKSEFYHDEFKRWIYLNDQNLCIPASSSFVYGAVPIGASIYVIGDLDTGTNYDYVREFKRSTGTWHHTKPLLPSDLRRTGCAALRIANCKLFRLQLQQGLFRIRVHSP

[2] = target: T2, GFP-tagged gigaxonin Kelch 3 deletion mutant (human) (UniProt Q9H2C0); test: as above
T2 sequence: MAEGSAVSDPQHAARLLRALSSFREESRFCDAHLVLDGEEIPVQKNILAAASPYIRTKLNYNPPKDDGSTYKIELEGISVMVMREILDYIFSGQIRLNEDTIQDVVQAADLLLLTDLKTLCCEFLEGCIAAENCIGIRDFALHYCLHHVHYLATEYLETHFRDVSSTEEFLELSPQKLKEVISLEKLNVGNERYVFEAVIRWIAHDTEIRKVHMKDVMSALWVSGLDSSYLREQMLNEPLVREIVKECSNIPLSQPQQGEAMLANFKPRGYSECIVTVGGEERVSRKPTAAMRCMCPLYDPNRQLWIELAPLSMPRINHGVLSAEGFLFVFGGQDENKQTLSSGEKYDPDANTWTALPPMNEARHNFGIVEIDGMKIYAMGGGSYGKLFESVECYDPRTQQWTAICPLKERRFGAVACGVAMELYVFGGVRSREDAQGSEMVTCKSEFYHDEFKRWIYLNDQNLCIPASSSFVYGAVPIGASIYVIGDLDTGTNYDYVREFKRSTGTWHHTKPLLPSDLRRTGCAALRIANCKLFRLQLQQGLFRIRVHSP

binding [1]: binds
binding [2]: no binding
B1: NudC domain-containing protein 3 (protein, UniProt Q8IVD9 1-361)
chain: METGAAELYDQALLGILQHVGNVQDFLRVLFGFLYRKTDFYRLLRHPSDRMGFPPGAAQALVLQVFKTFDHMARQDDEKRRQELEEKIRRKEEEEAKTVSAAAAEKEPVPVPVQEIEIDSTTELDGHQEVEKVQPPGPVKEMAHGSQEAEAPGAVAGAAEVPREPPILPRIQEQFQKNPDSYNGAVRENYTWSQDYTDLEVRVPVPKHVVKGKQVSVALSSSSIRVAMLEENGERVLMEGKLTHKINTESSLWSLEPGKCVLVNLSKVGEYWWNAILEGEEPIDIDKINKERSMATVDEEEQAVLDRLTFDYHQKLQGKPQSHELKVHEMLKKGWDAEGSPFRGQRFDPAMFNISPGAVQF
